The supplement of paper PMC3334620
In all, about 33,000 sequences were measured (“E-score (-0.5 to 0.5)”: median about -0.0059, highest 2% from about 0.26 on). Some of the results follow.

biological target: T1, Cin5 (UniProt P40917); assay: PBM E-score (8-mer binding enrichment) (E-score (-0.5 to 0.5)); higher = stronger / more preferred TF binding; conditions: protein concentration: 100 nM; construct: GST-full length
T1 sequence: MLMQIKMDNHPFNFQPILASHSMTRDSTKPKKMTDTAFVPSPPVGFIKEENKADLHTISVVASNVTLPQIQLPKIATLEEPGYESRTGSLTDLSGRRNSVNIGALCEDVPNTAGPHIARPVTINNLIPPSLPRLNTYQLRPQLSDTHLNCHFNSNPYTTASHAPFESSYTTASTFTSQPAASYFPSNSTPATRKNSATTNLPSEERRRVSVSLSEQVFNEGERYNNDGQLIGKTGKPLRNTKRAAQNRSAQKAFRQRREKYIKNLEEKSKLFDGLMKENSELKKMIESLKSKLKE
Method in brief: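 E-scores (a modified Wilcoxon-Mann-Whitney statistic) were assigned by the Universal PBM Analysis Suite to every ungapped eight-base word pooled with its reverse complement. The input came from universal all-10-mer Agilent arrays made double-stranded by primer extension and probed with GST-tagged yeast transcription factors at about 100-200 nM. Fluorescent anti-GST detected bound protein, and masliner normalised the scans.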

Sequence | PBM E-score
CAAGTCGA | -0.0845
AGCCCGAA | -0.147
GACTTCAA | -0.0601
ACTTGGTG | -0.0186
ACAGCGTG | -0.0933
CCGGTGTC | -0.189
AGAGAACT | -0.132
CAATTAGA | 0.193
CACGTGAC | -0.0993
AATAATCA | 0.257
CCATCGGC | -0.139
CTCTTCAC | -0.0426
GCTTTTGA | -0.136
CATCATGG | 0.154
CCGCGATA | 0.107
CATTTTAA | 0.0885
AGCTCCAG | -0.203
GCACGAGA | -0.0641
GCCGGTTA | -0.0397
AGAGCACA | 0.0787
TACGACCA | -0.139
ACCTATAT | 0.269
CCGGTAGA | -0.0367
AATCGCTC | -0.00659
GAAGTATC | 0.0945

Sequence | PBM E-score
ACTGGGAA | 0.17
ACGTGAGT | -0.00685
AAGTTATG | 0.25
ATCTACGA | -0.164
CAACCAGG | -0.168
CTTAAGTA | 0.12
CCAATTCA | 0.243
GGTAAATA | 0.0538
CCTGTACA | -0.114
ACGGAGGG | -0.00228
AGCATGGC | -0.129
CATGTGCA | -0.185
AGTTACCA | 0.0365
CGCAAGAC | -0.154
AGGAGACG | -0.228
GCGGGATA | 0.0615
CCACACAG | 0.00178
ATACATAA | 0.286
GCCATATA | 0.0878
GCTCTGGA | 0.0948
AGCTCCCT | -0.245
AGCGATCC | -0.0288
CAGGCATG | -0.114
AACGATGT | 0.0581
CAGCGACG | -0.205

Reformatted with tabs: entries from further up
Sequence	PBM E-score
CAACCAGG	-0.168
CTTAAGTA	0.12
CCAATTCA	0.243

(cont.)

Sequence | PBM E-score
GCTAGACC | -0.267
CATAGAAA | 0.173
GTTACGTA | 0.305
ATGCAGGA | -0.0613
ATAACCAG | 0.0194
ATCGCCAG | -0.021
AAGCGTAG | -0.0586
AATGAGAT | 0.242
CCAAAGAC | -0.185
ACACAAGT | 0.0985
TAAGTCCA | -0.0817
ATTCTCTA | 0.161
CCAGATGC | -0.138
GACGCCCC | -0.096
GTAGATAA | 0.28
TCCTCCGA | -0.262
ATATCAGA | 0.0931
CGTGTTTC | -0.139
TCGCCGAA | -0.0578
GCTTGAAC | 0.0677
CATCAGAG | 0.0228
CCGGCGGA | 0.115
ACCGATAG | 0.108
CCGGACCG | -0.0876
TACAAAGA | 0.121

In another format: results already given.
Sequence	PBM E-score
CCGGTGTC	-0.189
ACGGAGGG	-0.00228
CATGTGCA	-0.185
GCTCTGGA	0.0948
CATCAGAG	0.0228

(listing goes on)

Sequence | PBM E-score
AGCAATCC | -0.161
ACGTTGTA | -0.0326
GGGACACC | -0.238
CAAGTGCC | -0.106
CTCGGGAC | -0.181
ACGGTGCA | -0.139
ACTGGGCG | -0.257
TACTGTGA | 0.154
AGACAGTC | -0.157
AACTGAAG | 0.109
TCAAGGCA | -0.132
GCAATGGC | -0.16
CCTCGGAG | -0.0962
AGCCAGAA | -0.0437
CAGGATAA | 0.175
AGGTCCAA | -0.199
AACGGATT | 0.238
CAATATTC | 0.102
CCAGGAAC | -0.219
ATGCGGGG | -0.128
CTCATTTA | 0.185
CTGATTTC | -0.00928
CAGGGCCA | -0.257
ACGATCCT | -0.0248
AACGCTAT | 0.0739

2 consecutive entries out of the list so far:
Sequence | PBM E-score
ACTGGGCG | -0.257
TACTGTGA | 0.154

Next results.

Sequence | PBM E-score
CTCAGCCA | -0.0301
TAATAAAA | 0.235
GCCAAAAC | -0.0264
CACACCCG | -0.0966
CGAATGCG | 0.0975
ACTGTCCC | 0.058
AAGAGGGC | -0.205
TAGTCGCA | 0.0555
CAAATTAG | 0.122
AAATGTTA | 0.0773
GGCTGTAC | -0.237
ATCGACCC | 0.0846
GGGCTGCA | -0.0765
AAGGATGG | -0.106
GGTAATGA | 0.153
AGGTCAAC | -0.00951
CCTGGCCA | -0.0925
GCTAGAAC | -0.044
ATCGTCGA | -0.0681
GATGCGGA | -0.146
CGTCCGCC | -0.209
GGGTGCAC | -0.221
CCAGATCA | 0.0639
CCTGGAAC | -0.114
ATAATACC | 0.258

Sequence | PBM E-score
GTCTCTCA | -0.139
CAGGTACC | -0.324
AGTCTGCG | -0.343
GAACGGGC | -0.234
CCTCCTCG | -0.172
GAAGCGTC | -0.169
TATGGGAA | 0.00901
AAAAACGA | 0.223
ACTACAAC | 0.21
CACGCAGA | 0.101
TCTCCGCA | -0.132
AGACCGAT | -0.0832
CACATGGG | 0.04
AGCATCCC | -0.17
GTTGGGGA | -0.0161
AGTGGGTA | 0.0535
CCTCCCGC | -0.0813
ACAGGACC | -0.106
ACTTGTTC | -0.0464
GCGAGACC | -0.127
GCTGACCA | 0.216
GAAGAACC | -0.0676
AATGAATT | 0.189
AGCACGAG | 0.0365
GGTATCAA | 0.00165

Sequence | PBM E-score
CGAGAACG | 0.0225
ATGTCGCG | 0.0243
AGGGATCC | -0.173
CGGAAAAG | -0.00159
CTAGAGCC | -0.194
CCACAACC | 0.106
AACCAGCA | -0.129
AAGAGAGT | -0.0939
GCGTGAGA | 0.167
ATTTTTGC | 0.101
ATTGTCGG | 0.0241
AACCTTTC | -0.093
GCGATTAC | 0.264
CATCCTGC | -0.0103
GACCGCGA | -0.129
CCACTCAC | 0.0919
GATGCATA | 0.137
ACTGGTGA | -0.114
CCCCCCCA | -0.464
CCTTAATA | 0.149
CACTCTCC | -0.0769
CAAGATAG | 0.0267
